Data: article PMC3917433
No constants are given. Whether binding was seen depends on the method and setting. Some entries that bind do so weakly or less than the wild type.

Chains of the proteins cited; added tags and fusions are not shown. Lines headed by an entry give the natural chain unless they say otherwise; changes in a name come on top.
UniProt Q96AP0: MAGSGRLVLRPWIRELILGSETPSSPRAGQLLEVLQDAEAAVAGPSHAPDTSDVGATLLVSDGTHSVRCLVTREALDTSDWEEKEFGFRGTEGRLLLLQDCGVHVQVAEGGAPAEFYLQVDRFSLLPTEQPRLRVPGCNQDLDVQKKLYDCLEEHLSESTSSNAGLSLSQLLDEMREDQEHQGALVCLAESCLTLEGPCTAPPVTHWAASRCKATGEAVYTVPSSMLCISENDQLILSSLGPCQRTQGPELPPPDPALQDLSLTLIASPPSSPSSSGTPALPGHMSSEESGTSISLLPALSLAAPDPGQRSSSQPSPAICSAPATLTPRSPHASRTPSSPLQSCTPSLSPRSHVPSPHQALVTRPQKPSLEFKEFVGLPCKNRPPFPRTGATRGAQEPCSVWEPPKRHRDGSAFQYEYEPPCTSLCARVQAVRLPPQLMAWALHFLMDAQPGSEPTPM
UniProt P18615: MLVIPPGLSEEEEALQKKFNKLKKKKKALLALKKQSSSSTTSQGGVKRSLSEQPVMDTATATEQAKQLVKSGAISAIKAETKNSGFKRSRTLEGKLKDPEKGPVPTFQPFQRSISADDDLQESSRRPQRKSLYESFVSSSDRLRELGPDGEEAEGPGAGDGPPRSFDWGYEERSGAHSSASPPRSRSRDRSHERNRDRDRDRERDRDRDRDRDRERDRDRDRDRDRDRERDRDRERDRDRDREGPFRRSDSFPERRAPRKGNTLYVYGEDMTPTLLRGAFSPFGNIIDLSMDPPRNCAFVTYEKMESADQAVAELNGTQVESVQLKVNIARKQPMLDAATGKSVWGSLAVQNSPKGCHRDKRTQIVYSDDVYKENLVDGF
UniProt P09104: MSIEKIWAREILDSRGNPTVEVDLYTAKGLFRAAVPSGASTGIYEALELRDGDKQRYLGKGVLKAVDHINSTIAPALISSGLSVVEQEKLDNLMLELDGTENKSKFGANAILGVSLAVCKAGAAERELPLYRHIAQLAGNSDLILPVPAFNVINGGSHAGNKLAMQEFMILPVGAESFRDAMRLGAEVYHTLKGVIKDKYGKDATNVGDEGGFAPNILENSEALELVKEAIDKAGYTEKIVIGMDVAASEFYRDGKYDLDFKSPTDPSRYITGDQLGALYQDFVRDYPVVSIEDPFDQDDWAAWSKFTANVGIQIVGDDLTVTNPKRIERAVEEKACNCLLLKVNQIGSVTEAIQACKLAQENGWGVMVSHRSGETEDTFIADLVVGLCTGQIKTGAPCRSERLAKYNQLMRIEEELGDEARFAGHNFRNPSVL
UniProt P13202: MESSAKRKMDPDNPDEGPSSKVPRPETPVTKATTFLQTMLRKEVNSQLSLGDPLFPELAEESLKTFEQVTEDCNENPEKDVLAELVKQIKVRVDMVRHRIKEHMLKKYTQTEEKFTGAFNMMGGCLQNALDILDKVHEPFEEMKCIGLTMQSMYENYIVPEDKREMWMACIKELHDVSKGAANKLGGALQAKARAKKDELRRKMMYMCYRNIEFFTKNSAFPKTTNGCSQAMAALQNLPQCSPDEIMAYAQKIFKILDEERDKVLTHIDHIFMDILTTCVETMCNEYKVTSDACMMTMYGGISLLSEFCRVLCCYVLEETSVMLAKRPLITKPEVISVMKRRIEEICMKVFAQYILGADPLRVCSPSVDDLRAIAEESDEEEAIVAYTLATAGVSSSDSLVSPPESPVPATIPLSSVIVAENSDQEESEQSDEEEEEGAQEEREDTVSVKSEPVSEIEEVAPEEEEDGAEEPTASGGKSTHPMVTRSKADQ

What was measured:
Experiment in all cases: peptide or protein array; only the binder purified
[1] = molecular target: Adrenocortical dysplasia homolog (mouse) (ACD), transcript variant 1 (human) (UniProt Q96AP0)
[2] = molecular target: T1, zinc finger protein 36, C3H type-like 2 (ZFP36L2) (human) (UniProt P47974)
T1 sequence: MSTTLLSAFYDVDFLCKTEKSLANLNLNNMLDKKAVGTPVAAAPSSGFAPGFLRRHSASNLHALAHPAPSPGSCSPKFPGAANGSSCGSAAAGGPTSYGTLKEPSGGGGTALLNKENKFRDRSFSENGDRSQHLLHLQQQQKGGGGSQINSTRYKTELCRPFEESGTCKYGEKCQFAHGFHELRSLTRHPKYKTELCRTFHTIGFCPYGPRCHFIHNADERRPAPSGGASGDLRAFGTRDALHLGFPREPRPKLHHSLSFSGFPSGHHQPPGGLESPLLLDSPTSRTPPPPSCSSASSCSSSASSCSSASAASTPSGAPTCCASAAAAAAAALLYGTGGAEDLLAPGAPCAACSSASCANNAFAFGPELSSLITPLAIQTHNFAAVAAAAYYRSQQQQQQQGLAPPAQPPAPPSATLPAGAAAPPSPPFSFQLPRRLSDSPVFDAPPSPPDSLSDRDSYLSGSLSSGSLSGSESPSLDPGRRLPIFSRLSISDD

[3] = molecular target: RD RNA binding protein (RDBP) (human) (UniProt P18615)
[4] = molecular target: T2, Nuclear receptor coactivator 5 (NCOA5) (human) (UniProt Q9HCD5)
T2 sequence: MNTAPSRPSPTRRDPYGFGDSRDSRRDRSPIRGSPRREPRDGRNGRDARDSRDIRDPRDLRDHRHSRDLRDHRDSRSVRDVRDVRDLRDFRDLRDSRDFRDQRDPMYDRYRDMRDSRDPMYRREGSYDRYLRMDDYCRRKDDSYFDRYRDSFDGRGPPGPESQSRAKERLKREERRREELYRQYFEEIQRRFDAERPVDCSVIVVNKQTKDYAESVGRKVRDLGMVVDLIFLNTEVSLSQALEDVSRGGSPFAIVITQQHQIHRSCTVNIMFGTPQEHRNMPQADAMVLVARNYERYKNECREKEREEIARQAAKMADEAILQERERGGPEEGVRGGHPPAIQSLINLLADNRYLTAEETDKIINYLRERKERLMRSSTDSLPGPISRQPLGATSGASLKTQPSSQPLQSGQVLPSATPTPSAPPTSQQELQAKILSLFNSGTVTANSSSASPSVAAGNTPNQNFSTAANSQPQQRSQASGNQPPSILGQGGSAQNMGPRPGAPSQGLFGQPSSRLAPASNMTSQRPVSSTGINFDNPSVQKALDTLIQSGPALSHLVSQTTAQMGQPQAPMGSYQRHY

[5] = molecular target: T3, Tripartite motif-containing 33 (TRIM33) (human) (UniProt Q9UPN9)
T3 sequence: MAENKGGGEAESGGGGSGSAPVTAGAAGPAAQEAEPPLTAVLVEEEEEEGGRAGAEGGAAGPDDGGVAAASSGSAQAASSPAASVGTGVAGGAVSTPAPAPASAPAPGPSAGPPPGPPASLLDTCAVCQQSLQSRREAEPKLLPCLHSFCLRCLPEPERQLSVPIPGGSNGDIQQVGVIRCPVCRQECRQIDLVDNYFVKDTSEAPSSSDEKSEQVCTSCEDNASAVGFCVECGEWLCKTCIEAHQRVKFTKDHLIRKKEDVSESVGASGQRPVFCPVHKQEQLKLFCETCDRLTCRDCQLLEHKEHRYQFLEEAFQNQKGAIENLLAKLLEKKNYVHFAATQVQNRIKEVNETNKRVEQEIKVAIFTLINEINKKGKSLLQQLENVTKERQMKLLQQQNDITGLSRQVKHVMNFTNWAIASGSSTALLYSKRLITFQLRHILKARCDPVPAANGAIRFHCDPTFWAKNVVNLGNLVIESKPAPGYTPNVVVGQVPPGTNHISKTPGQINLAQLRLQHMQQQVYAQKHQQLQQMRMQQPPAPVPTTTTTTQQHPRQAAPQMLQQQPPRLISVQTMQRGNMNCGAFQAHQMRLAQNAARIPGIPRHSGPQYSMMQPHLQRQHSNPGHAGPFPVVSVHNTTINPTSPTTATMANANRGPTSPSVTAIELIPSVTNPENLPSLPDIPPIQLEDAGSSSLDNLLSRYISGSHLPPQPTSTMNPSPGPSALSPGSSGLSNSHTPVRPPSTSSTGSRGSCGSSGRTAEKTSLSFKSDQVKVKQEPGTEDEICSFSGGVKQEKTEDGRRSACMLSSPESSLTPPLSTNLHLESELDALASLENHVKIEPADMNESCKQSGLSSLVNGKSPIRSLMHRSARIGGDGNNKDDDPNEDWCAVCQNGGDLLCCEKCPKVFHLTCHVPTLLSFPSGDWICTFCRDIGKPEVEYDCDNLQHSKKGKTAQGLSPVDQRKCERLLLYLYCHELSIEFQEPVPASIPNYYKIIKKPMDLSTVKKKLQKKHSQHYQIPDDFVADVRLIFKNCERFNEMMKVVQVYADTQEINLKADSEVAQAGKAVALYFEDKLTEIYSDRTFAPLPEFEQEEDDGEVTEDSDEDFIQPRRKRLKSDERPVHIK

[6] = molecular target: T4, Polycomb group ring Finger 2 (PCGF2) (human) (UniProt P35227)
T4 sequence: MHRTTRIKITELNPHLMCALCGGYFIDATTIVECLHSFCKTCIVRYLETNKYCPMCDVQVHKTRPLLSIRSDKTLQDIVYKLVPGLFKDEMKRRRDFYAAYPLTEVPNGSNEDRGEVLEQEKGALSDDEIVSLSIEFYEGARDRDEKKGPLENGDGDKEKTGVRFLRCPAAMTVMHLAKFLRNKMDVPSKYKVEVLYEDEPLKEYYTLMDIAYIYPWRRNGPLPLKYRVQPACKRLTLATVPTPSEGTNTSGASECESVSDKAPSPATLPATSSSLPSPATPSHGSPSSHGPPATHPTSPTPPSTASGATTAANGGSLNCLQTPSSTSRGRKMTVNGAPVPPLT

[7] = molecular target: Gamma enolase (EC 4.2.1.11) (human) (UniProt P09104)

Measured: binding

Human cytomegalovirus immediate-early protein 1 (from UniProt P13202 1-491)
binds: [1] | [2] | [3] | [4] | [5] | [6] | [7]
